Five molecules from article PMC8131845 can be followed below.

Protein sequences, listed by entry. Tags and fused reporters are not part of them.
UniProt Q8BXK9: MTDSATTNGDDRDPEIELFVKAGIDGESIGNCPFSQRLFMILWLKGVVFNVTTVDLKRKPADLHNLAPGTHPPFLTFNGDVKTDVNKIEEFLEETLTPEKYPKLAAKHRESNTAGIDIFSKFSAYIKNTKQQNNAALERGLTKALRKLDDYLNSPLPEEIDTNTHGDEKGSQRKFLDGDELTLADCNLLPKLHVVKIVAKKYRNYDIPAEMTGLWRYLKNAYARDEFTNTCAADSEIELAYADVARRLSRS
UniProt Q9QYB1: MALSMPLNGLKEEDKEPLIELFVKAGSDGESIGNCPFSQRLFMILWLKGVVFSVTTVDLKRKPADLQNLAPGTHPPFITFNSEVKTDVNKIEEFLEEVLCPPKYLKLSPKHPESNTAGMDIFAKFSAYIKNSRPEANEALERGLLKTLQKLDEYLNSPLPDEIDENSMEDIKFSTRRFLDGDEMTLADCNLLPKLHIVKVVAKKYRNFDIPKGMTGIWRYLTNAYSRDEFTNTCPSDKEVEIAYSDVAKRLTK

Common to all, as to experiment: co-IP; extracts of HEK293 cells transfected with tagged constructs; immunoprecipitation with Myc-antibody (Figure 1C) or HA-antibody (Figure 1D-G), western blotting of co-expressed proteins
(In general: A western blot detects proteins with antibodies after separation by electrophoresis.)

The target of experiment [1] is T1, Myc-tagged GRXCR2 (mouse) (UniProt Q3TYR5).
T1 sequence: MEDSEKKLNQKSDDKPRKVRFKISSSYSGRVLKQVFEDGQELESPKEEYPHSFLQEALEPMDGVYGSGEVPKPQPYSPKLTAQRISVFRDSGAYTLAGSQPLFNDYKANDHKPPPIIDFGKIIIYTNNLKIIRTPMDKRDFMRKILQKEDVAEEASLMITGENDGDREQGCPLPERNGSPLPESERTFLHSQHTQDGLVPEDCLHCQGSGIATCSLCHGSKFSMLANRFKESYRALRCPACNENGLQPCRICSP

A further experiment deals with HA-tagged CLIC5 (mouse) (UniProt Q8BXK9).
Experiment [2] addresses CLIC4 (paralog of CLIC5) (mouse) (UniProt Q9QYB1).
Another experiment addresses T2, Taperin (mouse) (UniProt A2AI08).
T2 sequence: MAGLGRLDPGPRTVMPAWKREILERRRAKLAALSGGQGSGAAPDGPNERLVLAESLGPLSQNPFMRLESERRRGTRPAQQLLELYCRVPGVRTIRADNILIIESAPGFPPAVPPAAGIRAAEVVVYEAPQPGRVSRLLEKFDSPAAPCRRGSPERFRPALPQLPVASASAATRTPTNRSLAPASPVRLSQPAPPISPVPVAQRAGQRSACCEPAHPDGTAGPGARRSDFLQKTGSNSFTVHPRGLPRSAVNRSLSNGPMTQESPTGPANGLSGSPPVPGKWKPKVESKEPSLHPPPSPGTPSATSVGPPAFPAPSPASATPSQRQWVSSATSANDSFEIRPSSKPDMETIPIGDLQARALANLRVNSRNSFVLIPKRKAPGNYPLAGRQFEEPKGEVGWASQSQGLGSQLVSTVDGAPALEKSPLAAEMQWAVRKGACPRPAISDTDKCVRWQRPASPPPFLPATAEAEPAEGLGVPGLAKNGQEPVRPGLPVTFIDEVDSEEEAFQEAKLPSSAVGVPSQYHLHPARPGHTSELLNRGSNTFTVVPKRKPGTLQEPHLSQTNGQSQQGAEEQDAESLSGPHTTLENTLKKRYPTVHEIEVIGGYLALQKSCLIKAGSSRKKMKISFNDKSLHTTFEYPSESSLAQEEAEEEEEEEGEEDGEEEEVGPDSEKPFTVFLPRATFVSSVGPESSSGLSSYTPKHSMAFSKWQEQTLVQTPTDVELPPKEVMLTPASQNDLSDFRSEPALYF

For experiment [3], the target named is Domain-swapped CLIC protein: N terminal 94 aa of CLIC5 on the rest of CLIC4 (mouse) (UniProt Q8BXK9+Q9QYB1).
Experiment [4] concerns the target Domain-swapped CLIC protein: N terminal 94 aa of CLIC4 on the rest of CLIC5 (mouse) (UniProt Q9QYB1+Q8BXK9).

No constants are given. Whether binding was seen depends on the method and setting. In cells and extracts the contact can be indirect. Some entries that bind do so weakly or less than the wild type. For some assays here: Tags and fused reporters may be left off the sequences shown.

“GFP-tagged CLIC5 (from UniProt Q8BXK9 1-251)”: in experiment [1], the binding result was “binds”.

B1: Taperin (protein, UniProt A2AI08 1-749)
chain: MAGLGRLDPGPRTVMPAWKREILERRRAKLAALSGGQGSGAAPDGPNERLVLAESLGPLSQNPFMRLESERRRGTRPAQQLLELYCRVPGVRTIRADNILIIESAPGFPPAVPPAAGIRAAEVVVYEAPQPGRVSRLLEKFDSPAAPCRRGSPERFRPALPQLPVASASAATRTPTNRSLAPASPVRLSQPAPPISPVPVAQRAGQRSACCEPAHPDGTAGPGARRSDFLQKTGSNSFTVHPRGLPRSAVNRSLSNGPMTQESPTGPANGLSGSPPVPGKWKPKVESKEPSLHPPPSPGTPSATSVGPPAFPAPSPASATPSQRQWVSSATSANDSFEIRPSSKPDMETIPIGDLQARALANLRVNSRNSFVLIPKRKAPGNYPLAGRQFEEPKGEVGWASQSQGLGSQLVSTVDGAPALEKSPLAAEMQWAVRKGACPRPAISDTDKCVRWQRPASPPPFLPATAEAEPAEGLGVPGLAKNGQEPVRPGLPVTFIDEVDSEEEAFQEAKLPSSAVGVPSQYHLHPARPGHTSELLNRGSNTFTVVPKRKPGTLQEPHLSQTNGQSQQGAEEQDAESLSGPHTTLENTLKKRYPTVHEIEVIGGYLALQKSCLIKAGSSRKKMKISFNDKSLHTTFEYPSESSLAQEEAEEEEEEEGEEDGEEEEVGPDSEKPFTVFLPRATFVSSVGPESSSGLSSYTPKHSMAFSKWQEQTLVQTPTDVELPPKEVMLTPASQNDLSDFRSEPALYF
In the case of B1, the binding entry (with HA-tagged CLIC5 (mouse); in experiment [2]) was “binds” throughout.

B2: GRXCR2 (construct of the co-IP with taperin, Supplementary Figure 1B) (protein, UniProt Q3TYR5 1-254)
chain: MEDSEKKLNQKSDDKPRKVRFKISSSYSGRVLKQVFEDGQELESPKEEYPHSFLQEALEPMDGVYGSGEVPKPQPYSPKLTAQRISVFRDSGAYTLAGSQPLFNDYKANDHKPPPIIDFGKIIIYTNNLKIIRTPMDKRDFMRKILQKEDVAEEASLMITGENDGDREQGCPLPERNGSPLPESERTFLHSQHTQDGLVPEDCLHCQGSGIATCSLCHGSKFSMLANRFKESYRALRCPACNENGLQPCRICSP
Regarding B2, the binding result with Taperin (mouse) was “binds”.

B3: GFP tagged GRXCR2 (protein, UniProt Q3TYR5 1-254)
chain: MEDSEKKLNQKSDDKPRKVRFKISSSYSGRVLKQVFEDGQELESPKEEYPHSFLQEALEPMDGVYGSGEVPKPQPYSPKLTAQRISVFRDSGAYTLAGSQPLFNDYKANDHKPPPIIDFGKIIIYTNNLKIIRTPMDKRDFMRKILQKEDVAEEASLMITGENDGDREQGCPLPERNGSPLPESERTFLHSQHTQDGLVPEDCLHCQGSGIATCSLCHGSKFSMLANRFKESYRALRCPACNENGLQPCRICSP
Consider B3, for which the binding entry (with HA-tagged CLIC5 (mouse); in experiment [3]; in experiment [4]) was “binds” in each case.

B4: GRXCR2 (Δ36–95) (protein, UniProt Q3TYR5)
chain: MEDSEKKLNQKSDDKPRKVRFKISSSYSGRVLKQVLAGSQPLFNDYKANDHKPPPIIDFGKIIIYTNNLKIIRTPMDKRDFMRKILQKEDVAEEASLMITGENDGDREQGCPLPERNGSPLPESERTFLHSQHTQDGLVPEDCLHCQGSGIATCSLCHGSKFSMLANRFKESYRALRCPACNENGLQPCRICSP
Turning to B4, the binding entry in the experiment with Taperin (mouse) is given as “binds”.
